The record followed here is the supplement of paper PMC6411743.

The chains behind the UniProt entries cited, without tags or fusion partners. Where a name states a change or a piece, a line headed by the entry shows the natural chain unless it says otherwise.
UniProt Q14118: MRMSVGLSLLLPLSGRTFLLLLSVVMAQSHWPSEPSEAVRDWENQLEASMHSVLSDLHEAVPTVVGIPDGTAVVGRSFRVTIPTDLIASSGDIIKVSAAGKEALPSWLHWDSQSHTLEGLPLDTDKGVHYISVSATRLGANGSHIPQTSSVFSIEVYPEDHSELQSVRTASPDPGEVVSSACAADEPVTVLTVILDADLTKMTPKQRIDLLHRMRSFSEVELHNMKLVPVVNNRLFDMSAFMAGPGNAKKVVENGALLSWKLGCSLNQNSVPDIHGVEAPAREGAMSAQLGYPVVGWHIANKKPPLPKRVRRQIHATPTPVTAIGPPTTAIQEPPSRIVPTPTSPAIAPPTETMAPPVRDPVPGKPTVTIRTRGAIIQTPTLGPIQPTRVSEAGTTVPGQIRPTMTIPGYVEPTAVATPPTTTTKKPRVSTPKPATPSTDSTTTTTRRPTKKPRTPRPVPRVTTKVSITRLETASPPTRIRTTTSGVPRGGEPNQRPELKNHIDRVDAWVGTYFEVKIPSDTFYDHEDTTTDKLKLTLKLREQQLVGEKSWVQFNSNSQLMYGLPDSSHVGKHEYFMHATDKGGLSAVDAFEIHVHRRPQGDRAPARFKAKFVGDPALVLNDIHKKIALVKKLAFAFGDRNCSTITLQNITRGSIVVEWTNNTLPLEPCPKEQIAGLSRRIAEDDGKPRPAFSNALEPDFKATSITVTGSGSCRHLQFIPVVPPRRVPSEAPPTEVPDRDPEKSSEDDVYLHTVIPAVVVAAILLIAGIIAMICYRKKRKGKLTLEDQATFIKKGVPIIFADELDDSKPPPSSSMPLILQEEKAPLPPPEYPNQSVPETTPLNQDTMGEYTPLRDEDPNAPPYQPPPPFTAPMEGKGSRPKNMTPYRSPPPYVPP
UniProt Q14165: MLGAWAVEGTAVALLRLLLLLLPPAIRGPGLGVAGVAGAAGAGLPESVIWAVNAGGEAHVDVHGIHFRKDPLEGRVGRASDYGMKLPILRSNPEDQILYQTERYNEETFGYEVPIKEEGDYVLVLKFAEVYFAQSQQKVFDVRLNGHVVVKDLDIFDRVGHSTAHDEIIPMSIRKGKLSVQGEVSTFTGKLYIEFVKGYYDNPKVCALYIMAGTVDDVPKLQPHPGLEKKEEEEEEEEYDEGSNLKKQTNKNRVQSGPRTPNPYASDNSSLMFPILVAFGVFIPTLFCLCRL
UniProt Q09472, whole entry: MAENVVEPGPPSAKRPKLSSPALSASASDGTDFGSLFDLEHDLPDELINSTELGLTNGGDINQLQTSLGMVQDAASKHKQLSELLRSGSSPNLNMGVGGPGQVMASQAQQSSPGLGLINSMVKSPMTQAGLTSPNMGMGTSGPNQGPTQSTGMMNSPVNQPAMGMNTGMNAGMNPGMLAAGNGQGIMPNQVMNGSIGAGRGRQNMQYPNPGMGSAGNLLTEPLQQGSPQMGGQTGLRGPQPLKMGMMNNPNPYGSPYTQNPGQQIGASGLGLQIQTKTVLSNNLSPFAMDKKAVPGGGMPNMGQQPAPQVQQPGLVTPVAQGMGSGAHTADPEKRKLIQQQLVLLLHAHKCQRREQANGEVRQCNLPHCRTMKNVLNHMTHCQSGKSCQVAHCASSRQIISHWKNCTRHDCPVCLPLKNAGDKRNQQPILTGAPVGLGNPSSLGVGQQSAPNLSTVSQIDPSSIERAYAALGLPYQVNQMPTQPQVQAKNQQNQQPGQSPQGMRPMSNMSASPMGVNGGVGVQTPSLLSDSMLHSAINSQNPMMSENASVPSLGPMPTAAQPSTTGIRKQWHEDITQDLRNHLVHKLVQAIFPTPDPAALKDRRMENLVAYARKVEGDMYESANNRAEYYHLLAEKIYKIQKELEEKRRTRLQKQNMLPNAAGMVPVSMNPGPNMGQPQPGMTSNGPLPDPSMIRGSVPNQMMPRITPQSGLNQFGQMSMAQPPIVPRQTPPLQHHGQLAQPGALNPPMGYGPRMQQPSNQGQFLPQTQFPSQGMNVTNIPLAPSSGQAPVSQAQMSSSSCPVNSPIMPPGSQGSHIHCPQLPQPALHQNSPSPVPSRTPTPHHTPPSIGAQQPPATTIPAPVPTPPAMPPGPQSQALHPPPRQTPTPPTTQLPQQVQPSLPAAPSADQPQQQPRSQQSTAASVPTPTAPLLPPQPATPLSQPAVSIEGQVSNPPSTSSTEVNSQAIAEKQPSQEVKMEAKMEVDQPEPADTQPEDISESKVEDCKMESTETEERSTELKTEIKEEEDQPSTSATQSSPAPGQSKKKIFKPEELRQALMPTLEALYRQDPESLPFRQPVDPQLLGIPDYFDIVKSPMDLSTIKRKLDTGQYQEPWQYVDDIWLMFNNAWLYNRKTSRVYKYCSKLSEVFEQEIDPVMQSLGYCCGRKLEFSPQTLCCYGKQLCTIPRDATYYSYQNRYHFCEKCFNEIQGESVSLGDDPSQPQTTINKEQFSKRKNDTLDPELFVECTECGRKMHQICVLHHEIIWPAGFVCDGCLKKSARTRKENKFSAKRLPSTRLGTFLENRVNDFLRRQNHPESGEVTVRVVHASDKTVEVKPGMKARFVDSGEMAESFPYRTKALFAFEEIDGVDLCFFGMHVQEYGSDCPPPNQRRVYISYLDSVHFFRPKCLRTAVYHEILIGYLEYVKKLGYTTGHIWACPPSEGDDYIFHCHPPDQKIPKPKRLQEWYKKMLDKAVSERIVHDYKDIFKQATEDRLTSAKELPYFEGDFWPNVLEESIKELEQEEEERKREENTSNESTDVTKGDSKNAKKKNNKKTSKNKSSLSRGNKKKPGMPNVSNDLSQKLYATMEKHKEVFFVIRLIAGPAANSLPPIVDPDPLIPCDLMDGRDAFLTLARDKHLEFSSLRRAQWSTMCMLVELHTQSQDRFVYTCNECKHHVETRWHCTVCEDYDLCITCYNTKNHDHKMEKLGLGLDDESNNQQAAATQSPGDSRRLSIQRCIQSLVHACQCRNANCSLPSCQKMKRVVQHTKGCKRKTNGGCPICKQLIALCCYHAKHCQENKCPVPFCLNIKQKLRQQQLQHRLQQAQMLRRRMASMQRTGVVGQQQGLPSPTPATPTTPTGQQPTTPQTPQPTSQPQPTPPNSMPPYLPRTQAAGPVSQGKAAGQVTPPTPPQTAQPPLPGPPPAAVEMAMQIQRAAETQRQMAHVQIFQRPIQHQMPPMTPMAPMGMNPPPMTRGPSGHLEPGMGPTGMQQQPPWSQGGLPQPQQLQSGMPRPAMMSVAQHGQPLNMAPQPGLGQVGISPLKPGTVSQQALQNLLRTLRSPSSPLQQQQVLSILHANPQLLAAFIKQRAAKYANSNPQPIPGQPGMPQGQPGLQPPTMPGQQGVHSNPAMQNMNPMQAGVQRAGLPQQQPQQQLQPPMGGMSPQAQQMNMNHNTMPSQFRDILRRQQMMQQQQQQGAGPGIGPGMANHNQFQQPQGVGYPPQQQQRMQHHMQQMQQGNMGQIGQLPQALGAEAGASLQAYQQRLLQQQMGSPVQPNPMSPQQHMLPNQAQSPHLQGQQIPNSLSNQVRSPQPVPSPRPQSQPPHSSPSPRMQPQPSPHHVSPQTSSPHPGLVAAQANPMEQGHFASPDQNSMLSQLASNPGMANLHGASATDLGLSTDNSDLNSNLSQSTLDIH
UniProt Q13542: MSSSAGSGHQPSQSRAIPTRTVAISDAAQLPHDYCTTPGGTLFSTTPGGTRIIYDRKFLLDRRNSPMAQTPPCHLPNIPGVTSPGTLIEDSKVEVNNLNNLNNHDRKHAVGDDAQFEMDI
UniProt Q14152, whole entry: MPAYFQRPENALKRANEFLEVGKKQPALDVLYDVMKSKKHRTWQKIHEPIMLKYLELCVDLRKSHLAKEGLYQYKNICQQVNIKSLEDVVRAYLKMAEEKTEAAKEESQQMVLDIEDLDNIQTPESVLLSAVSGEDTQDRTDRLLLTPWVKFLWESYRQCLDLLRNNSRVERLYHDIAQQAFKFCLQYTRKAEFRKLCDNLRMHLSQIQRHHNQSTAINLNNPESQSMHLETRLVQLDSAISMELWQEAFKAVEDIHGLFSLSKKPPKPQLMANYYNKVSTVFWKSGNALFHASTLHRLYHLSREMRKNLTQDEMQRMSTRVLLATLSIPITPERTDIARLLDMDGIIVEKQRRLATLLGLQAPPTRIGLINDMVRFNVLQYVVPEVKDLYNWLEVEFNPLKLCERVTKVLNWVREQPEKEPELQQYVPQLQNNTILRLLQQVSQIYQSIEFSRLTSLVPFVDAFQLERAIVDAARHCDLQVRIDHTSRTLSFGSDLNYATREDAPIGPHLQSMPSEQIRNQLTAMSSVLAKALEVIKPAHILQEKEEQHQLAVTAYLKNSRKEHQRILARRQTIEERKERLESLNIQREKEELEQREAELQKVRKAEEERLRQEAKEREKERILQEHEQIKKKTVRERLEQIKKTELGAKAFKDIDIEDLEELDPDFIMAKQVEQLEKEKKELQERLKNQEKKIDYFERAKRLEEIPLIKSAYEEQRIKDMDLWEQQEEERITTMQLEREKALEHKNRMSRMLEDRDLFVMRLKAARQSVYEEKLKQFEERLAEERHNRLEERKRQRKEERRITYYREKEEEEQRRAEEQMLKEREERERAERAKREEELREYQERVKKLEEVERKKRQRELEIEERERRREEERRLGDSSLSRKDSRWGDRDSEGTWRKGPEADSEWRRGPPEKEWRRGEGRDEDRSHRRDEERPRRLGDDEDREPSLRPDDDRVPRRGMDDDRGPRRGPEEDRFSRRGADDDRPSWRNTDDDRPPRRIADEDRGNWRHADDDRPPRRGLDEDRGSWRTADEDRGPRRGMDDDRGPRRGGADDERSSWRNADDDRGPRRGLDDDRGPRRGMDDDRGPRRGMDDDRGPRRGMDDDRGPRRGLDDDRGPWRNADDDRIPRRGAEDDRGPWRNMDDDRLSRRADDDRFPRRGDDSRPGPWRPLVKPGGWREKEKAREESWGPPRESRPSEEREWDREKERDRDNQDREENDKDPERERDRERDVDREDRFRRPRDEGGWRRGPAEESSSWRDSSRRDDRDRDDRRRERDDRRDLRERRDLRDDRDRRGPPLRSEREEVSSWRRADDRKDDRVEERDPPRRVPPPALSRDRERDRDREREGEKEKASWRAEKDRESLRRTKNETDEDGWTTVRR

± gives the standard deviation of the averaged measurements. The list shows a part of the results.

Compound in the assay: Nc1nc2c(ncn2[C@@H]2O[C@H](COP(=O)(O)OP(=O)(O)OP(=O)(O)O)[C@@H](O)[C@H]2O)c(=O)[nH]1 [guanosine triphosphate]
Briefly: NP40-soluble protein abundance relative to vehicle (solubility fold change) (ratio); higher = more soluble protein in presence of GTP. The protocol:
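Solubility proteome profiling in Jurkat crude lysate. Lysate was treated with Mg-GTP (0.1-10 mM) for 10 min at room temperature and 3 min at 37 °C, then solubilised with 0.8% NP40 and benzonase, followed by ultracentrifugation. Proteins were quantified by TMT10 LC-MS/MS; the value is the NP40-soluble abundance relative to the NP40-processed vehicle, from 3 independent experiments.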

On to DAG1 (UniProt Q14118), for which the NP40-soluble protein abundance (concentration: 0.1mM) came to 0.853 ± 0.015; the NP40-soluble protein abundance (concentration: 0.5mM) was 0.867 ± 0.032; the NP40-soluble protein abundance (concentration: 1mM) amounted to 0.996 ± 0.041; the NP40-soluble protein abundance (concentration: 2mM) worked out at 1.02 ± 0.096; the NP40-soluble protein abundance (concentration: 4mM) was found to be 0.934 ± 0.057; the NP40-soluble protein abundance (concentration: 6mM) was determined as 0.976 ± 0.073. Moreover, the NP40-soluble protein abundance (concentration: 8mM) came out at 0.914 ± 0.15 and the NP40-soluble protein abundance (concentration: 10mM) was found to be 1.06 ± 0.15.
In the case of MLEC (UniProt Q14165), the NP40-soluble protein abundance by setting is: (concentration: 0.1mM) 1.01 ± 0.011; (concentration: 0.5mM) 1.01 ± 0.038; (concentration: 1mM) 0.932 ± 0.021; (concentration: 2mM) 0.924 ± 0.039; (concentration: 4mM) 0.907 ± 0.032; (concentration: 6mM) 0.899 ± 0.04. Further, the NP40-soluble protein abundance by setting is: (concentration: 8mM) 0.874 ± 0.052; (concentration: 10mM) 0.848 ± 0.083.
As to EP300 (UniProt Q09472), the NP40-soluble protein abundance by setting is: (concentration: 0.1mM) 1.11 ± 0.037; (concentration: 0.5mM) 1.05 ± 0.051; (concentration: 1mM) 1.05 ± 0.053; (concentration: 2mM) 1.05 ± 0.071; (concentration: 4mM) 1.04 ± 0.064; (concentration: 6mM) 0.993 ± 0.053. Further, the NP40-soluble protein abundance came out at 1.02 ± 0.076 (concentration: 8mM) and 1.01 ± 0.047 (concentration: 10mM).
As for EIF4EBP2 (UniProt Q13542), the NP40-soluble protein abundance is, setting by setting: (concentration: 0.1mM) 0.887 ± 0.05; (concentration: 0.5mM) 0.866 ± 0.031; (concentration: 1mM) 0.9006 ± 0.0047; (concentration: 2mM) 0.822 ± 0.043; (concentration: 4mM) 0.867 ± 0.11; (concentration: 6mM) 0.896 ± 0.096. The NP40-soluble protein abundance reads like this: (concentration: 8mM) 0.942 ± 0.11; (concentration: 10mM) 0.866 ± 0.088.
On to EIF3A (UniProt Q14152), for which the NP40-soluble protein abundance was 1.05 ± 0.031 (concentration: 0.1mM); 1.08 ± 0.018 (concentration: 0.5mM); 1.09 ± 0.062 (concentration: 1mM); 1.18 ± 0.12 (concentration: 2mM); 1.38 ± 0.23 (concentration: 4mM); 1.53 ± 0.28 (concentration: 6mM). Besides, the NP40-soluble protein abundance runs as follows: (concentration: 8mM) 1.74 ± 0.34; (concentration: 10mM) 1.94 ± 0.38.
